PubChem BioAssay AID1508597, Cure First | 2020
Assay: 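Knock-downs altering ovarian cancer cell survival with or without PARP inhibitor rucaparib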 (primary screen). Cells: human ovarian carcinoma lines grown from tumours: OCI-P5x (papillary serous) and OCI-C5x (clear cell). Reagent: siRNA pool against human genes, 1.25 pmol siRNA per well. Time to read-out: 72 h or 96 h, depending on the cell culture. Conditions: rucaparib 20 µM (about IC30) or vehicle, present until read-out. Rucaparib or vehicle: Rucaparib. Cell line: OCI-P5x (serous). Read-out: 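Luminescent ATP-based viability assay read 72 or 96 h after transfection, depending on culture, given as normalised percent viability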. Direction: viability, normalised: higher = more viable cells remaining. Hit rule: 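Active when normalised viability falls below 80 percent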. Calls: active = viability under 80%; inactive = viability 80% or more.
Shown is an unselected part of the about 2,100 reagents, under one of the conditions tested. 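Calls flag viability under 80% in either arm, not effects specific to rucaparib; the reference for percent is not stated.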 Some reagents were tested in more than one well and are listed for each. Not given: the 100% reference.

| gene | technical replicate | viability, normalised (%) | activity call |
| --- | --- | --- | --- |
| SPO11 | 1 | 66.3 | active |
| SPO11 | 2 | 69.4 | active |
| SPO11 | 3 | 63.7 | active |
| ADCK2 | 1 | 115 | inactive |
| ADCK2 | 2 | 110 | inactive |
| ADCK2 | 3 | 96.7 | inactive |
| PRKAG2 | 1 | 48.7 | active |
| PRKAG2 | 1 | 95.4 | inactive |
| PRKAG2 | 2 | 97.9 | inactive |
| PRKAG2 | 2 | 47.6 | active |
| PRKAG2 | 3 | 54.6 | active |
| PRKAG2 | 3 | 58.5 | active |
| PARP11 | 1 | 41.5 | active |
| PARP11 | 2 | 48.2 | active |
| PARP11 | 3 | 47 | active |

Copied from the listing (2 entries):
| gene | technical replicate | viability, normalised (%) | activity call |
| --- | --- | --- | --- |
| ADCK2 | 2 | 110 | inactive |
| ADCK2 | 3 | 96.7 | inactive |

Additional reagents follow.
| gene | technical replicate | viability, normalised (%) | activity call |
| --- | --- | --- | --- |
| FANCL | 1 | 61.4 | active |
| FANCL | 2 | 68.3 | active |
| FANCL | 3 | 56.4 | active |
| HMGA2 | 1 | 51.1 | active |
| HMGA2 | 2 | 61 | active |
| HMGA2 | 3 | 52.3 | active |
| EIF2AK3 | 1 | 75 | active |
| EIF2AK3 | 2 | 79.9 | active |
| EIF2AK3 | 3 | 60.1 | active |
